The list is a part of this screen's results and no random one: it gathers tests that were run many times, whatever their T/C, doses with no T/C, and many T/C values between a quarter and a half above the control. Further doses and runs are listed elsewhere. T/C: endpoint of the treated group in % of that of the vehicle group. Schedules are NCI's codes, taken here to give the interval after Q, in days (D) or hours (H), and the number of doses after X. Some T/C values carry the count of animals alive at the toxicity check (mostly the fifth day); without a count, all were alive then. Some doses have a count of surviving animals in place of a T/C: the source holds a T/C of zero for them, seemingly a mark for toxic or unscored doses. Counts of survivors are from the toxicity check (mostly the fifth day) where no day follows; animals may have died later.

The values that follow come from PubChem BioAssay AID262 (DTP/NCI, 2004).

The assay relates to LX-1 lung xenograft sc, nude mice, tumor weight. The assay is described as follows: NCI In Vivo Anticancer Drug Screen. Data for tumor model Human Lung LX-1 Xenograft (subcutaneous) in NU/NU Swiss (nude) mice. To be noted: T/C endpoint: optimum tumor weight change, higher T/C = larger tumour. As to the method:
The antitumor activity of compounds was measured in mice bearing transplantable tumors. Survival or tumor size were measured and the results are expressed as the measurement made in the treated group (T) divided by the measurement made in the vehicle treated control group (C). The tumor model used in this assay is Human Lung LX-1 Xenograft (subcutaneous) in NU/NU Swiss (nude) mice
A general note: Xenograft models place foreign cells or tissue in a host animal.

The mark [1] stands for this setting: dose: 200.0 mg/kg/injection, schedule: Q04DX003 (ip), vehicle: Klucel (hydroxypropylcellulose) (HPC).
Where [2] appears, read: dose: 400.0 mg/kg/injection, schedule: Q04DX003 (ip), vehicle: Klucel (hydroxypropylcellulose) (HPC).
Setting [3] is: dose: 100.0 mg/kg/injection, schedule: Q04DX003 (ip), vehicle: Klucel (hydroxypropylcellulose) (HPC).
The mark [4] stands for this setting: dose: 800.0 mg/kg/injection, schedule: Q04DX003 (ip), vehicle: Klucel (hydroxypropylcellulose) (HPC).
Setting [5] is: dose: 800.0 mg/kg/injection, schedule: Q04DX003 (ip), vehicle: suspension in saline.
Setting [6] is: dose: 400.0 mg/kg/injection, schedule: Q04DX003 (ip), vehicle: saline.
The mark [7] stands for this setting: dose: 800.0 mg/kg/injection, schedule: Q04DX003 (ip), vehicle: saline.

Consider `CS(=O)(=O)OCCN(CCOS(C)(=O)=O)c1ccc(C=Nc2ccc(-c3csc(COc4ccccc4)n3)cc2)cc1`, for which the survivor count under setting [1] is given as 1 of 5 on day 36 and the survivor count under setting [2] is listed as 0 of 5 on day 36.
On to `CCOC(=O)C1C2OC(=O)C(C(=O)C2CN(CCCl)CCCl)C1C1CC=C(CC2=CCC(C3C4C(=O)OC(C(CN(CCCl)CCCl)C4=O)C3C(=O)OCC)CC2)CC1` (centres undefined), for which the survivor count under setting [1] was 0 of 5 on day 42.
As to `O=C(O)CP(=O)(O)O`, the survivor count (dose: 3200.0 mg/kg/injection, schedule: Q04DX003 (ip), vehicle: saline) is reported as 0 of 5 on day 36.
Consider `COc1cccc2c1C(=O)c1c(O)c3c(c(O)c1C2=O)C[C@@](O)(C(=O)CO)C[C@@H]3OC1CC(N)C(OC)C(C)O1` (some centres undefined), for which the survivor count (dose: 3.13 mg/kg/injection, schedule: Q04DX003 (ip), vehicle: saline) is listed as 0 of 5 on day 35.
Take `CC(=O)OCC1OC(n2cc(CBr)nn2)C(OC(C)=O)C(OC(C)=O)C1OC(C)=O` (centres undefined): the survivor count (dose: 50.0 mg/kg/injection, schedule: Q04DX003 (ip), vehicle: saline with Tween-80) is given as 3 of 5 on day 35; the survivor count (dose: 100.0 mg/kg/injection, schedule: Q04DX003 (ip), vehicle: saline with Tween-80) is 3 of 5 on day 36; the survivor count (dose: 200.0 mg/kg/injection, schedule: Q04DX003 (ip), vehicle: saline with Tween-80) is listed as 1 of 5 on day 36.
For `CCc1ccccc1N1CCN(C(=O)c2cc(OC)c(OC)c(OC)c2)CC1`, the T/C (dose: 25.0 mg/kg/injection, schedule: Q04DX003 (ip), vehicle: Klucel (hydroxypropylcellulose) (HPC), evaluated on day 33) was 141 % of control. In addition, the survivor count by setting is: under setting [3], 3 of 5 on day 36; under setting [1], 1 of 5 on day 36; under setting [2], 0 of 5 on day 36; under setting [4], 1 of 5 on day 36.
With `O=C[C@@H](CO)O[C@H](C=O)n1cnc2c(=O)[nH]cnc21`, the survivor count under setting [5] was 0 of 5 on day 34.
As to `CCCCNCCCNCCCNC(=O)c1csc(-c2csc(CCNC(=O)C(NC(=O)C(C)C(O)C(C)NC(=O)C(NC(=O)c3nc(C(CC(N)=O)NCC(N)C(N)=O)nc(N)c3C)C(OC3OC(CO)C(O)C(O)C3OC3OC(CO)C(O)C(OC(N)=O)C3O)c3cnc[nH]3)C(C)O)n2)n1` (centres undefined), the survivor count is 3 of 5 on day 36 (dose: 60.0 mg/kg/injection, schedule: Q04DX003 (ip), vehicle: saline) and 0 of 5 on day 36 (dose: 120.0 mg/kg/injection, schedule: Q04DX003 (ip), vehicle: saline).
On to `CC(C)CCCCCCCCCCCCC(=O)NCC(=O)NC1C(C)OC(Nc2ncnc3nc[nH]c23)C(O)C1O` (centres undefined), for which the survivor count is, setting by setting: (dose: 12.5 mg/kg/injection, schedule: Q04DX003 (ip), vehicle: saline with Tween-80) 1 of 5 on day 35; (dose: 25.0 mg/kg/injection, schedule: Q04DX003 (ip), vehicle: saline with Tween-80) 0 of 5 on day 35.
`CN(N=O)C(=O)N[C@@H](C=O)[C@@H](O)[C@H](O)[C@H](O)CO`: the survivor count by setting is: under setting [6], 0 of 5 on day 36; under setting [7], 0 of 5 on day 36.
For `CN(CO)c1nc(N(C)CO)nc(N(C)CO)n1`, the T/C by setting is: (dose: 25.0 mg/kg/injection, schedule: Q04DX005 (ip), vehicle: saline, evaluated on day 56) 149 % of control; (dose: 100.0 mg/kg/injection, schedule: Q04DX005 (ip), vehicle: saline, evaluated on day 56) 149 % of control [4 of 5 alive]; (dose: 200.0 mg/kg/injection, schedule: Q04DX005 (ip), vehicle: saline, evaluated on day 56) 130 % of control.
`C=CC(=O)N1CN(C(=O)C=C)CN(C(=O)C=C)C1`: the survivor count (dose: 12.0 mg/kg/injection, schedule: Q04DX003 (ip), vehicle: saline with Tween-80) is 3 of 5 on day 36.
Consider `CC1CCC(NC(=O)N(CCCl)N=O)CC1` (centres undefined), for which the survivor count reads like this: (dose: 20.0 mg/kg/injection, schedule: Q04DX003 (ip), vehicle: Klucel (hydroxypropylcellulose) (HPC)) 1 of 5 on day 41; (dose: 40.0 mg/kg/injection, schedule: Q04DX003 (ip), vehicle: Klucel (hydroxypropylcellulose) (HPC)) 0 of 5 on day 41.
Take `C[n+]1c(-c2cccc3ccccc23)c2cc(N)ccc2c2ccccc21`: for the setting “dose: 3.0 mg/kg/injection, schedule: Q04DX003 (ip), vehicle: saline”, the survivor count is on record as 3 of 5 on day 34.
As for `O=C(NO)c1ccccc1`, the survivor count is, setting by setting: (dose: 200.0 mg/kg/injection, schedule: Q04DX003 (ip), vehicle: saline) 0 of 5 on day 35; under setting [6], 0 of 5 on day 35; under setting [7], 0 of 5 on day 35; under setting [5], 2 of 5 on day 35; (dose: 1600.0 mg/kg/injection, schedule: Q04DX003 (ip), vehicle: suspension in saline) 3 of 5 on day 35.
As for `N[C@@H](Cc1ccc(N(CCCl)CCCl)cc1)C(=O)O`, the T/C (dose: 1.0 mg/kg/injection, schedule: Q04DX003 (ip), vehicle: suspension in saline, evaluated on day 34) was 129 % of control [4 of 5 alive on day 36].
For the molecule `CO[C@@]12[C@H](COC(N)=O)C3=C(C(=O)C(C)=C(N)C3=O)N1C[C@@H]1N[C@@H]12`, the T/C (dose: 0.75 mg/kg/injection, schedule: Q04DX003 (ip), vehicle: saline, evaluated on day 33) is 130 % of control.
Consider `CC[C@](O)(C(=O)O)c1cc2n(c(=O)c1CO)Cc1cc3ccccc3nc1-2`, for which the survivor count (dose: 2.0 mg/kg/injection, schedule: Q04DX003 (ip), vehicle: saline) is on record as 2 of 5 on day 36; the survivor count (dose: 16.0 mg/kg/injection, schedule: Q04DX003 (ip), vehicle: saline) was 1 of 5 on day 36; the survivor count (dose: 32.0 mg/kg/injection, schedule: Q04DX003 (ip), vehicle: saline) is given as 0 of 5 on day 36; the survivor count (dose: 64.0 mg/kg/injection, schedule: Q04DX003 (ip), vehicle: saline) is recorded as 0 of 5 on day 36; the survivor count (dose: 128.0 mg/kg/injection, schedule: Q04DX003 (ip), vehicle: saline) is 0 of 5 on day 36.
Turning to `Nc1ccc(Cl)cc1N`, the T/C is, setting by setting: (dose: 50.0 mg/kg/injection, schedule: Q04DX003 (ip), vehicle: saline with Tween-80, evaluated on day 33) 130 % of control [4 of 5 alive on day 35]; (dose: 200.0 mg/kg/injection, schedule: Q04DX003 (ip), vehicle: saline with Tween-80, evaluated on day 33) 125 % of control.
As for `CCN(C)N=Nc1ccc(C(N)=O)cc1`, the survivor count runs as follows: under setting [1], 3 of 6 on day 36; under setting [2], 0 of 6 on day 36; under setting [4], 0 of 6 on day 36.
In the case of `Nc1nc(N)c2cc(CNc3ccc(C(=O)NC(CC(=O)O)CC(=O)O)cc3)ccc2n1`, the survivor count reads like this: (dose: 50.0 mg/kg/injection, schedule: Q04DX003 (ip), vehicle: Klucel (hydroxypropylcellulose) (HPC)) 3 of 5 on day 36; under setting [3], 2 of 5 on day 36; under setting [1], 2 of 5 on day 36; under setting [2], 0 of 5 on day 36.
Consider `O=CC(S)CO` (centres undefined), for which the T/C (dose: 100.0 mg/kg/injection, schedule: Q04DX003 (ip), vehicle: suspension in saline, evaluated on day 32) was 128 % of control. For the same molecule, the survivor count was 3 of 5 on day 34 (dose: 400.0 mg/kg/injection, schedule: Q04DX003 (ip), vehicle: suspension in saline) and 1 of 5 on day 34 under setting [5].
For the molecule `CC(C)CCCCCCCCCCCCC(=O)NCC(=O)NC1C(O)C(O)C(Nc2ncnc3nc[nH]c23)OC1C(O)CO` (centres undefined), the survivor count is, setting by setting: (dose: 12.0 mg/kg/injection, schedule: Q04DX003 (ip), vehicle: suspension in saline) 2 of 5 on day 36; (dose: 24.0 mg/kg/injection, schedule: Q04DX003 (ip), vehicle: suspension in saline) 0 of 5 on day 36; (dose: 48.0 mg/kg/injection, schedule: Q04DX003 (ip), vehicle: suspension in saline) 0 of 5 on day 36.
